Values quoted from earlier work in paper PMC7693160 (Pharmaceutics, 2020).

Test system: Caco-2 cells
Conditions: calibrator values; cited from earlier work

CC(C)NCC(O)COc1ccc(CC(N)=O)cc1 (stereo not shown) [Atenolol]
Papp, Caco-2, ref: 1.57 ×10⁻⁶ cm/s
